Experimental data reported in paper PMC9997211.

Biological target: T1, ZEB1 (WT), zinc finger E-box binding homeobox 1 (UniProt P37275)
T1 sequence: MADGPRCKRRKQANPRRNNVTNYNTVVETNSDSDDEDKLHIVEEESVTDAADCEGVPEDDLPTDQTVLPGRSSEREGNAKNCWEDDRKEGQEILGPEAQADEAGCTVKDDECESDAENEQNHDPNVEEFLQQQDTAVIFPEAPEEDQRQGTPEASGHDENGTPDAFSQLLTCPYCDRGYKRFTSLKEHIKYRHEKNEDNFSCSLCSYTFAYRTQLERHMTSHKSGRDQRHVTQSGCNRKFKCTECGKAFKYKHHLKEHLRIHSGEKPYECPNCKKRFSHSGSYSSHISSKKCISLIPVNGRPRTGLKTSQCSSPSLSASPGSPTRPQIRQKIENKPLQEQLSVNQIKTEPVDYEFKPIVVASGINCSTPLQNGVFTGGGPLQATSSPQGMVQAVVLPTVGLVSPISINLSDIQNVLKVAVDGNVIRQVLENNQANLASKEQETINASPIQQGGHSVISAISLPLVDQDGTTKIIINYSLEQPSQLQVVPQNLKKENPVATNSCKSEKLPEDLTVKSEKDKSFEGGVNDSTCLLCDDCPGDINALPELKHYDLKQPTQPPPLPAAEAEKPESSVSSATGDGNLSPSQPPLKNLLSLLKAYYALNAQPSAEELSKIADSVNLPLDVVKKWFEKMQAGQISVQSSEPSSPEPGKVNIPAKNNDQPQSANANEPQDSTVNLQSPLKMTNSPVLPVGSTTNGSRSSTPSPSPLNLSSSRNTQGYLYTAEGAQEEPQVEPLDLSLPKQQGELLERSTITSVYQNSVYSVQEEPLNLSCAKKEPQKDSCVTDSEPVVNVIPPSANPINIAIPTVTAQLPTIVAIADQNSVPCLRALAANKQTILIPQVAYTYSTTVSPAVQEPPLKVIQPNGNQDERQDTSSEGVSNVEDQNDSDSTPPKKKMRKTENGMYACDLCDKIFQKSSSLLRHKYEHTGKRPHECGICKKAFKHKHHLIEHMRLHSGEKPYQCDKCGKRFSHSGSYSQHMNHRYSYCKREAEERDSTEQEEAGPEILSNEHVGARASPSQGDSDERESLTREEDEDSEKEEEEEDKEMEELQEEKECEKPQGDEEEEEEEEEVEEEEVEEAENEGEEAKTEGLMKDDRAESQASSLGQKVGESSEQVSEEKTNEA
Experiment: co-IP; lysates of HEK293T cells transfected with combinations of two tagged proteins; immunoprecipitation with anti-HA tag antibody-conjugated agarose beads, western blotting with tag antibodies

Which binding does the source give for MutZEB1 (ΔZn) (from UniProt P37275) here?
The binding was “no binding”.

These are yes or no findings as the source states them, for the method shown. Binding seen in cells or lysates may run through a third protein.
